These are yes or no findings as the source states them, for the method shown. Some entries that bind do so weakly or less than the wild type.
Molecular target: Cynomolgus IL-13Rα1 expressed in transfected Ba/F3 cells (Cynomolgus)
Assay: FACS on transfected Ba/F3 cells, 10 µg/ml

- binding: binds
B1: HuMab LC5002-002 (antibody, human IgG1, V domains shown)
VH: EVQLLESGGGLVQPGGSLRLSCAASGFTFNIYAMNWVRQAPGKGLEWVSVISGRGITTYYADSVKGRFTISRDNSKNTLYLQMNSLRADDTAVYYCAKGSSSWTDFDYWGQGTLVTVSS
VL: DIQMTQSPSSLSASVGDRVTITCRASQGISRWVAWYQQKPEKAPKSLIYAASSLQSGVPSRFSGSGSGTDFTLTISSLQPEDFATYYCQQYNSYPWTFGQGTKVEIK
notes: Human IgG1 kappa from a HuMab mouse hybridoma; Only the variable domains are tied to this antibody; also called hu-MAB<h-IL-13R alpha>LC.5002-002 (DSM ACC2709)

From patent US20110086026A1 (ROCHE PALO ALTO, published 2011)
